Source: US7514215B2, “Sulfotransferase SULT2A1 sequence variants” (Mayo Foundation for Medical Education and Research, priority 2001, dated 2009)
Where a chain is given by its changes, count along the chain named.

B1: WT: recombinant wild type (reference) human SULT2A1 polypeptide, SEQ ID NO:3, expressed in COS-1 cells (protein, listed as Homo Sapiens)
chain: MSDDFLWFEGIAFPTMGFRSETLRKVRDEFVIRDEDVIILTYPKSGTNWLAEILCLMHSKGDAKWIQSVPIWERSPWVESEIGYTALSESESPRLFSSHLPIQLFPKSFFSSKAKVIYLMRNPRDVLVSGYFFWKNMKFIKKPKSWEEYFEWFCQGTVLYGSWFDHIHGWMPMREEKNFLLLSYEELKQDTGRTIEKICQFLGKTLEPEELNLILKNSSFQSMKENKMSNYSLLSVDYVVDKAQLLRKGVSGDWKNHFTVAQAEDFDKLFQEKMADLPRELFPWE
B2: Ala261Thr: SULT2A1 allozyme having a threonine at amino acid 261 in place of an alanine (protein)
chain: B1 chain with A261T

Tested on: SULT2A1
Assay: Gel filtration chromatography of recombinant human SULT2A1 (Sephadex G-100)
Settings: Sephadex G-100, 4° C., 5 mM K phosphate buffer pH 7.5
Protocol: Gel Filtration Chromatography: Gel filtration chromatography of recombinant human SULT2A1 was performed at 4° C. with a 2×25 cm column of Sephadex G-100 superfine. The mobile phase was 5 mM K phosphate buffer, pH 7.5, and 3 ml fractions were collected at a flow rate of approximately 1.8 mL per h. The fractions were assayed for SULT2A1 activity. Standards for column calibration were eluted separately and included Dextran Blue 2000, bovine serum albumin (67 kDa), ovalbumin (45 kDa), chymotrypsinogen A (20 kDa) and ribonuclease A (13.7 kDa).
The Ala261Thr polymorphism is located within the dimerization motif at the C-terminus of the conserved ‘Region IV’ SULT signature sequence, and may alter the formation of the SULT2A1 homodimer. To test that hypothesis, recombinant WT and codon Thr261 variant allozyme preparations were subjected to gel filtration chromatography through Sephadex G-100.

Molecule | major peak on gel filtration (dimer or monomer) | major peak on gel filtration (dimer or monomer) (listed as codon Thr261 variant allozyme)
B1 | dimer | –
B2 | disrupts dimerization | monomer
